The values that follow come from paper PMC7374170, “TRIB3-EGFR interaction promotes lung cancer progression and defines a therapeutic target” (Nature Communications, 2020).

These are yes or no findings as the source states them, for the method shown. In cells and extracts the contact can be indirect. These calls come from enrichment with a bait or labelling near it, and not all partners need be listed.

In this test the target is epidermal growth factor receptor (EGFR), endogenous (human (endogenous in A549)) (UniProt P00533). The test can be described thus: affinity purification with mass spectrometry; IP of lysates from A549 cells with an anti-EGFR antibody, then mass spectrometry-based proteomic analysis.

Regarding “C-terminus of Hsc70-interacting protein (CHIP), endogenous (from UniProt Q9UNE7 1-303) (enzyme)”, the binding entry is on record as “binds”.
